# Results published in PubChem BioAssay AID2685 (National Center for Advancing Translational Sciences (NCATS), 2010).
# The other results are listed elsewhere or left out. These are further read-outs of the screen, such as a control signal, another cell line or another target. No call is given for them. Most of these compounds were active or inconclusive in the main read-out, so they are no random draw. Potencies come from curve fits of mixed quality, noted in brackets.
# Assay: qHTS Assay for Lipid Storage Modulators in Drosophila S3 Cells;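 on cell number change: cells counted by Cell Tracker Red CMTPX staining in the red channel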
# Conditions: BODIPY lipid droplet fluorescence, 18-24 h; for cell number change: measured here: cell count max response, cells fed with added oleic acid
# Procedure, shortened: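 Drosophila S3 cells loaded with oleic acid (400 uM, as added) and compounds at several concentrations; lipid droplets imaged by 488-nm laser-scanning cytometry, 500–530 nm intensity and object ratio to cell channel. Percent activity normalized to 20 uM Triacsin C.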
# [1] = measured here: cell number channel AC50, cells fed with added oleic acid
# [2] = measured here: lipid fluorescence (Fed channel) AC50, cells fed with added oleic acid
SMILES,cell number change,AC50 [1],AC50 [2]
COc1ccc(C2CCCCCN2Cc2nc3ccccc3c(=O)n2CC(N)=O)cc1 (configuration not stated),27.1%,"0.206 µM [rising, full curve, poor fit]","0.651 µM [rising, single point]"
c1ccc(-c2ccccc2OCCOCCN2CCOCC2)cc1,-26.8%,,
O=C(Cn1ccc([N+](=O)[O-])n1)Nc1nc2ccccc2s1,-2.3%,,"2.59 µM [falling, partial curve]"
CC(CNC(=O)c1ccc(-c2ccccc2)cc1)CN(C)C (configuration not stated),6.22%,,"0.13 µM [falling, full curve, poor fit]"
CCN(c1ccccc1)S(=O)(=O)c1cc2c(cc1C)n(C)c(=O)c(=O)n2C,,,"10.3 µM [falling, partial curve]"
CC1(C)CC(=O)C(C=Nc2ccccc2Sc2ccccc2)=C(O)C1,-2.25%,"5.8 µM [falling, single point]",
CC(=O)c1cc(CN2CCN(CCc3ccccc3)C(CCO)C2)cs1 (configuration not stated),16.8%,,"1.3 µM [falling, full curve]"
COc1ccc(C(=O)Nc2nc(CC(=O)NCCc3cccc(OC)c3)cs2)cc1,,"0.517 µM [rising, full curve, poor fit]",
CCN(CC)S(=O)(=O)c1ccc(N2CCOCC2)c(NS(=O)(=O)c2ccc(C)cc2)c1,-75.3%,"2.06 µM [falling, full curve]","1.84 µM [falling, full curve]"
Cc1ccc([N+](=O)[O-])c(OCCn2cnc3ccccc32)c1,63.1%,,"29.1 µM [rising, single point]"
CCOC(=O)N1CCC(NC(=O)c2ccc3c(=O)n4c(nc3c2)CCCC4)CC1,,,"32.6 µM [falling, partial curve, poor fit]"
CC1CCN(C(=S)NC2CC3CCC2C3)CC1 (configuration not stated),8.18%,,
CC(C)CN(CC(C)C)CC(O)CN(c1ccccc1)S(=O)(=O)c1ccccc1[N+](=O)[O-] (configuration not stated),13.8%,,"29.1 µM [rising, single point]"
NC(=O)c1nsc(C(=O)N(Cc2ccccc2F)C(C(=O)NCC2CCCO2)c2ccc(F)cc2)c1N (configuration not stated),25.7%,,"29.1 µM [falling, single point]"
COc1cc(/C=N/NC(=O)NC2CCCCC2)ccc1O,-31.7%,"1.64 µM [falling, partial curve]","6.51 µM [rising, single point]"
Cc1ccccc1NS(=O)(=O)c1ccc2c3c(cccc13)C(=O)N2C,-63.9%,"29.1 µM [falling, single point]","29.1 µM [falling, single point]"
O=C(Nc1ccc(-c2nc3ccccc3[nH]2)cc1)c1ccco1,,"6.51 µM [rising, partial curve]",
CCCCOc1ccc(C(=O)NCC(=O)N2CC(C)OC(C)C2)cc1 (configuration not stated),-22.6%,,"1.16 µM [falling, full curve]"
O=C(Cn1c(=O)oc2cccnc21)Nc1ccc(C(F)(F)F)cc1,-3.02%,,"1.16 µM [falling, single point]"

SMILES,cell number change,AC50 [1],AC50 [2]
O=C(c1ccc(Cl)cc1)c1ccccc1C(=O)N1CCOCC1,-4.5%,,
O=C(CN(C(=O)c1ccco1)c1cccc(F)c1)NCc1ccc(F)cc1,1.99%,,"0.116 µM [falling, full curve, poor fit]"
CCCC(=O)N=c1sc2cccc(F)c2n1C,,"6.51 µM [rising, single point]","2.91 µM [rising, partial curve]"
COc1ccc(NC2CC(=O)N(c3ccccc3)C2=O)cc1 (configuration not stated),-19.2%,"0.13 µM [falling, full curve, poor fit]","3.26 µM [falling, single point]"
O=C(Nc1ccccc1N1CCOCC1)c1ccc(N2CCCC2=O)cc1,21.5%,,"2.91 µM [rising, partial curve]"
CCOC(=O)CSc1nnc(SCCN2C(=O)c3ccccc3C2=O)s1,-28.5%,"3.26 µM [falling, single point]","29.1 µM [falling, single point]"
COc1ccccc1N1C(=O)CCC1(C#N)c1ccc(Br)cc1 (configuration not stated),58.6%,"11.6 µM [rising, partial curve]","6.51 µM [rising, partial curve]"
COc1cc(Cl)c(C)cc1NC(=O)COc1ccc(C)nc1[N+](=O)[O-],1.28%,"1.84 µM [falling, partial curve]","18.4 µM [rising, partial curve]"
Cc1nn(-c2nnc(NCc3ccccc3)nn2)c(C)c1Br,-77.4%,"29.1 µM [falling, single point]","14.6 µM [falling, partial curve]"
Brc1ccc(-c2nnc(-c3ccccc3)c(N3CCSCC3)n2)cc1,132%,,"9.2 µM [rising, single point]"
CN(C)c1ccc(/C=C2\SC(=S)N(Nc3ncc(C(F)(F)F)cc3Cl)C2=O)cc1,2.67%,,
O=C(CSC1=NCCN1)C1COc2ccccc2O1 (configuration not stated),-9.83%,,"0.0517 µM [falling, full curve]"
Cc1[nH]n(-c2ccc(C(=O)O)cc2)c(=O)c1CCO,-10%,,
C1=C(CCNc2ncnc3c2[nH]c2ccccc23)CCCC1,-40.4%,"1.64 µM [falling, partial curve, poor fit]","0.411 µM [falling, full curve]"
N/C(=N/O)c1nc(N2CCCC2)nc(N(c2ccccc2)c2ccccc2)n1,-32.7%,"0.231 µM [falling, full curve, poor fit]","0.082 µM [falling, partial curve, poor fit]"
Cc1[nH]n(-c2ccccc2)c(=O)c1N=Nc1ccc(C(=O)O)cc1,9.91%,"0.00517 µM [rising, full curve, poor fit]",
CCOC(=O)N1CCN(c2c(NCCN(C)Cc3ccccc3)c(=O)c2=O)CC1,,"6.51 µM [falling, single point]","6.51 µM [falling, single point]"
CN(C)S(=O)(=O)c1ccc(Cl)c(C(=O)OCC(=O)NNC(=O)c2cccs2)c1,12.8%,,"0.92 µM [rising, full curve]"
COc1ccc(S(=O)(=O)N2CCOC2CNC(=O)C(=O)NCc2cccnc2)cc1C (configuration not stated),23.4%,,"29.1 µM [rising, single point]"

SMILES,cell number change,AC50 [1],AC50 [2]
CCOC(=O)c1sc(NC(=S)NC(=O)C2CC2)cc1C,-36.6%,"6.51 µM [falling, full curve, poor fit]","6.51 µM [falling, full curve]"
CC(C)(C)NC(=O)CSc1nnc(-c2c[nH]c3ccccc23)o1,17.5%,"1.3 µM [rising, full curve, poor fit]",
CC1(C)Cc2c(sc3ncnc(NNC(=S)NCc4ccccc4)c23)CO1,-28.4%,"0.651 µM [rising, single point]",
COc1ccc2cc(S(=O)(=O)c3ccccc3)c(=O)oc2c1,14.4%,,"20.6 µM [rising, single point]"
O=C(CN1C(=O)COc2ccccc21)N1CCN(c2ccccc2F)CC1,10.7%,,"18.4 µM [rising, single point]"
CCCNC(=O)c1c(N)n(-c2cc(OC)cc(OC)c2)c2nc3ccccc3nc12,-16.3%,,
COC(=O)c1ccccc1NC(=O)CSc1nnc(-c2ccoc2C)n1C,-24.7%,,"5.8 µM [falling, full curve, poor fit]"
O=C(O)CCc1nnc(SCC(=O)Nc2ccc(Cl)c(C(F)(F)F)c2)[nH]c1=O,-24.6%,,"9.2 µM [falling, partial curve]"
O=c1[nH]c(C2CCN(S(=O)(=O)c3cccc(C(F)(F)F)c3)CC2)nc2c1nnn2Cc1cccc(F)c1,-2.78%,,"29.1 µM [rising, single point]"
CN1CCC(N(C)CC(C)(C)NS(=O)(=O)c2ccccc2)CC1,11.5%,,"32.6 µM [rising, single point]"
NC(=NCCc1c[nH]c2ccccc12)NS(=O)(=O)c1ccc2ccccc2c1,-35.9%,"1.16 µM [falling, full curve, poor fit]","4.11 µM [falling, full curve, poor fit]"
Cc1cc(C)n(CC(O)Cn2ccc3ccccc32)n1 (configuration not stated),-58%,"29.1 µM [falling, single point]","29.1 µM [falling, single point]"
Cn1c(=O)c2[nH]c(Nc3ccccc3)nc2n(C)c1=O,-21.2%,,"13 µM [falling, partial curve]"
O=C(Nc1nnc(CC(c2ccccc2)c2ccccc2)s1)c1ccco1,-7.89%,,"0.13 µM [falling, full curve, poor fit]"
O/N=C(/c1ccc(Cl)cc1)C1CC1c1ccccc1 (configuration not stated),-61.8%,"18.4 µM [falling, partial curve]","20.6 µM [falling, partial curve]"
N#CCCn1c(SCC(=O)Nc2ccc(N3CCOCC3)cc2)nc2ccccc21,25.8%,,"9.2 µM [rising, partial curve]"
COc1cc(C2C(C(=O)Nc3ccc(F)cc3)=C(C)Nc3nc(CCCO)nn32)cc(OC)c1OC (configuration not stated),17.8%,,"29.1 µM [rising, single point]"
COc1ccc(S(=O)(=O)N2CCC(C(=O)NC3CCCC3)CC2)cc1OC,5.2%,,"7.31 µM [rising, single point]"

# Of the compounds above, these have a cyano group:
SMILES,cell number change,AC50 [1],AC50 [2]
COc1ccccc1N1C(=O)CCC1(C#N)c1ccc(Br)cc1 (configuration not stated),58.6%,"11.6 µM [rising, partial curve]","6.51 µM [rising, partial curve]"
N#CCCn1c(SCC(=O)Nc2ccc(N3CCOCC3)cc2)nc2ccccc21,25.8%,,"9.2 µM [rising, partial curve]"
